{"source": "paper PMC10337483", "about": "(Biochemistry, 2022)", "target": "T1, CYP2J2 (Homo sapiens, UniProt P51589)", "T1 sequence (P51589 1-502)": "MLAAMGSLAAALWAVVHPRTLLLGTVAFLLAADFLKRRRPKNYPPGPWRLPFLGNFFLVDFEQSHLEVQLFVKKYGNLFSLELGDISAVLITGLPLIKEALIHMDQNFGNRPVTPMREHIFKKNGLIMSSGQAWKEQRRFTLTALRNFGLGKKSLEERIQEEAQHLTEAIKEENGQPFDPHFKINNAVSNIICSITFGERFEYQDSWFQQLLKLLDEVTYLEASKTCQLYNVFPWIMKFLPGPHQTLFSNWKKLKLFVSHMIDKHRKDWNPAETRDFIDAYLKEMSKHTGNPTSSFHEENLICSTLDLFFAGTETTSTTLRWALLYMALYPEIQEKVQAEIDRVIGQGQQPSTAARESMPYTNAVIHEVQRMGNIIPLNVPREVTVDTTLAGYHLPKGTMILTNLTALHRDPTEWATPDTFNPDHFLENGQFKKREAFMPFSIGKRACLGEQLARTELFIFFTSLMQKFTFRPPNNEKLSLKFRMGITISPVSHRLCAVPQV", "test": "Spectral", "conditions": "presence versus absence of CBG"}
{"smiles": "CC(C)(C)c1ccc(C(=O)CCCN2CCC(OC(c3ccccc3)c3ccccc3)CC2)cc1", "note": "[EBS, ebastine]", "values": [{"measurement": "increase of Ks of EBS on binding to CYP2J2-CBG bound complex", "result": "~ 4 fold"}]}
